Binding data for two substances are collected here from article PMC11443824.

The chains behind the UniProt entries cited, without tags or fusion partners. Residues count along the entry.
UniProt P35968, residues 20-1356: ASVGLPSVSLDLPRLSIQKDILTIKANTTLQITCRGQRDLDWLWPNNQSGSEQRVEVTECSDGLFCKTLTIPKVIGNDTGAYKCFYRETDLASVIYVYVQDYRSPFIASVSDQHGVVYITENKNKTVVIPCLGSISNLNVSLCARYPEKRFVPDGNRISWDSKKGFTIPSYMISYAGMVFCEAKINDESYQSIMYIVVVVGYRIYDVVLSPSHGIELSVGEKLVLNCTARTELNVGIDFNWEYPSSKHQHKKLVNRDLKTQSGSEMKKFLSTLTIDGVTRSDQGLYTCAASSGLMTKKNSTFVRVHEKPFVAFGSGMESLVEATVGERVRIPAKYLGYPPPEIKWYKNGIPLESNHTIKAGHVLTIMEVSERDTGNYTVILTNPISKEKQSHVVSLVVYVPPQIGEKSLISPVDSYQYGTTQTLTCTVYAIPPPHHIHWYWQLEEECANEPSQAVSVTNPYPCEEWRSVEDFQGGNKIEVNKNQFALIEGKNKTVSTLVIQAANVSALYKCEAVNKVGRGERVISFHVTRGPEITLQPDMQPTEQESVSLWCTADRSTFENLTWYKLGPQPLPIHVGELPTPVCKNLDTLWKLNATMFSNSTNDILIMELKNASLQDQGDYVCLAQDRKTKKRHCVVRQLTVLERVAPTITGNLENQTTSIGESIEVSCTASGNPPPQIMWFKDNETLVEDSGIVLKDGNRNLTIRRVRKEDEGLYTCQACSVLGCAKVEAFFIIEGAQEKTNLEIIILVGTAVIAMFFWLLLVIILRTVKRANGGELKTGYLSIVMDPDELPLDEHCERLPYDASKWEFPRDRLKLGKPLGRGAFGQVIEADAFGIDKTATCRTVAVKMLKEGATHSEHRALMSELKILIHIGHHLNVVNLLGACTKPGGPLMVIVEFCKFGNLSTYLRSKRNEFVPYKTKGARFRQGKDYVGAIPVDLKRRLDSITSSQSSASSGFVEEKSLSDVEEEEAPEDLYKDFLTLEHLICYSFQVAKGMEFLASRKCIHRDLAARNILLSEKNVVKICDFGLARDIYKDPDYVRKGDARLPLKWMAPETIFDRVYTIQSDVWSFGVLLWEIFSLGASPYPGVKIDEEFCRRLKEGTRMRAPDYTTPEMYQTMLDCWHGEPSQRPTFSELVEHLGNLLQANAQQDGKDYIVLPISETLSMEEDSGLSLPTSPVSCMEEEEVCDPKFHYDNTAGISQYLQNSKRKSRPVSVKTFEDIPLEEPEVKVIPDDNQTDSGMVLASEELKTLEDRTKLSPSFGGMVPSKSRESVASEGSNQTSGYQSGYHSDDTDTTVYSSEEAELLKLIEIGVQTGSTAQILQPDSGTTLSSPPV
UniProt P08581, residues 25-1390: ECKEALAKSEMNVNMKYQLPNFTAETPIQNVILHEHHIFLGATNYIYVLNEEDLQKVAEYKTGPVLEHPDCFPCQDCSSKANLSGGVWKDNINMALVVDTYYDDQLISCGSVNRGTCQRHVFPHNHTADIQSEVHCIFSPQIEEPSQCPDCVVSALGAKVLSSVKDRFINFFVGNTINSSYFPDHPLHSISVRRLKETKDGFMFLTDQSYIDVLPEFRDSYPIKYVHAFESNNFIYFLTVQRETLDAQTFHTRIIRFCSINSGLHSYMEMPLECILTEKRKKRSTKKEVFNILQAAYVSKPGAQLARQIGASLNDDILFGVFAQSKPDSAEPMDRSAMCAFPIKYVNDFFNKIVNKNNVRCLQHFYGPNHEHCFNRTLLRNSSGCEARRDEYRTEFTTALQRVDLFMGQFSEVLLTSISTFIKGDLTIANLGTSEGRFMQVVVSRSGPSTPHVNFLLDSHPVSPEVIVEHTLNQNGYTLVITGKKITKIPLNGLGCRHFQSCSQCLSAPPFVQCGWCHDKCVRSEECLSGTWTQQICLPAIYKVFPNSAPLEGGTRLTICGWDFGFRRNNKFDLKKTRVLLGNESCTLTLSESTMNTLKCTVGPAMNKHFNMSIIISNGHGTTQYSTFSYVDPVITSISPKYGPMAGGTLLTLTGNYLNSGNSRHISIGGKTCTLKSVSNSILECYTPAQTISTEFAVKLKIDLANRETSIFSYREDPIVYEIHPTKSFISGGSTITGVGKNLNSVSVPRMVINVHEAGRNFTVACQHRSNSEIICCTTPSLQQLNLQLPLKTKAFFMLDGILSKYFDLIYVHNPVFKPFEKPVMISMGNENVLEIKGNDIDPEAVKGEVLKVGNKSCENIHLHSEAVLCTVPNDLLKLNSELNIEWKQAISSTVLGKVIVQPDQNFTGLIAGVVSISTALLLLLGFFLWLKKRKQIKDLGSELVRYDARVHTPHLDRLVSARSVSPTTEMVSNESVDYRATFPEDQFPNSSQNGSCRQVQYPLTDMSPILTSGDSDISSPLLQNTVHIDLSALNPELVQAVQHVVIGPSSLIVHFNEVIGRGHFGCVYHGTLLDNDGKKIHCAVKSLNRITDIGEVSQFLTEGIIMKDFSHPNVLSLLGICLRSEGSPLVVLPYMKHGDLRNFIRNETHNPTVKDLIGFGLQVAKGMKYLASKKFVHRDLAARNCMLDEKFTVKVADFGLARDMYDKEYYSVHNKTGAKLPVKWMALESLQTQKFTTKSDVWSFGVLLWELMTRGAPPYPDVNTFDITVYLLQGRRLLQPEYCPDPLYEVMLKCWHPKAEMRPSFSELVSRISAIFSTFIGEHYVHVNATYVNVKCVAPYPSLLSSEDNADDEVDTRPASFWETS

Test [1] addresses vascular endothelial growth factor receptor 2 (VEGFR2) (human (endogenous in PC-9)) (UniProt P35968). The experiment in a line: co-IP; VEGFR2 immunoprecipitates blotted for MET and phosphorylated MET; cells untreated, treated with VEGF, or with VEGF and apatinib; NP-40 lysate, protein A/G magnetic beads.
Test [2] addresses Flag-MET (mesenchymal epithelial transition factor, hepatocyte growth factor receptor) (UniProt P08581). Put plainly: co-IP; PC-9/Vec or PC-9/MET cells lysed in NP-40 with PMSF and phosphatase inhibitors; anti-IgG or anti-Flag antibody overnight at 4 °C, protein A/G magnetic beads; western blotting.

These are yes or no findings as the source states them, for the method shown. In cells and extracts the contact can be indirect. Some entries that bind do so weakly or less than the wild type.

Consider “MET found in VEGFR2 immunoprecipitates (from UniProt P08581 25-1390) (receptor)”, for which the binding entry in test [1] was “binds”.

As to “vascular endothelial growth factor receptor 2 (VEGFR2) (from UniProt P35968 20-1356)”, the binding result in test [2] was “binds”.
